In US20110166081A1 (UNIVERSITY OF IOWA RESEARCH FOUNDATION, published 2011):
Results are given in words; binding and its absence hold for the method and conditions named. Some binding calls cover weakened binding; strength is not graded here.

Chains of the proteins cited; added tags and fusions are not shown. Lines headed by an entry give the natural chain unless they say otherwise; changes in a name come on top.
UniProt P19137: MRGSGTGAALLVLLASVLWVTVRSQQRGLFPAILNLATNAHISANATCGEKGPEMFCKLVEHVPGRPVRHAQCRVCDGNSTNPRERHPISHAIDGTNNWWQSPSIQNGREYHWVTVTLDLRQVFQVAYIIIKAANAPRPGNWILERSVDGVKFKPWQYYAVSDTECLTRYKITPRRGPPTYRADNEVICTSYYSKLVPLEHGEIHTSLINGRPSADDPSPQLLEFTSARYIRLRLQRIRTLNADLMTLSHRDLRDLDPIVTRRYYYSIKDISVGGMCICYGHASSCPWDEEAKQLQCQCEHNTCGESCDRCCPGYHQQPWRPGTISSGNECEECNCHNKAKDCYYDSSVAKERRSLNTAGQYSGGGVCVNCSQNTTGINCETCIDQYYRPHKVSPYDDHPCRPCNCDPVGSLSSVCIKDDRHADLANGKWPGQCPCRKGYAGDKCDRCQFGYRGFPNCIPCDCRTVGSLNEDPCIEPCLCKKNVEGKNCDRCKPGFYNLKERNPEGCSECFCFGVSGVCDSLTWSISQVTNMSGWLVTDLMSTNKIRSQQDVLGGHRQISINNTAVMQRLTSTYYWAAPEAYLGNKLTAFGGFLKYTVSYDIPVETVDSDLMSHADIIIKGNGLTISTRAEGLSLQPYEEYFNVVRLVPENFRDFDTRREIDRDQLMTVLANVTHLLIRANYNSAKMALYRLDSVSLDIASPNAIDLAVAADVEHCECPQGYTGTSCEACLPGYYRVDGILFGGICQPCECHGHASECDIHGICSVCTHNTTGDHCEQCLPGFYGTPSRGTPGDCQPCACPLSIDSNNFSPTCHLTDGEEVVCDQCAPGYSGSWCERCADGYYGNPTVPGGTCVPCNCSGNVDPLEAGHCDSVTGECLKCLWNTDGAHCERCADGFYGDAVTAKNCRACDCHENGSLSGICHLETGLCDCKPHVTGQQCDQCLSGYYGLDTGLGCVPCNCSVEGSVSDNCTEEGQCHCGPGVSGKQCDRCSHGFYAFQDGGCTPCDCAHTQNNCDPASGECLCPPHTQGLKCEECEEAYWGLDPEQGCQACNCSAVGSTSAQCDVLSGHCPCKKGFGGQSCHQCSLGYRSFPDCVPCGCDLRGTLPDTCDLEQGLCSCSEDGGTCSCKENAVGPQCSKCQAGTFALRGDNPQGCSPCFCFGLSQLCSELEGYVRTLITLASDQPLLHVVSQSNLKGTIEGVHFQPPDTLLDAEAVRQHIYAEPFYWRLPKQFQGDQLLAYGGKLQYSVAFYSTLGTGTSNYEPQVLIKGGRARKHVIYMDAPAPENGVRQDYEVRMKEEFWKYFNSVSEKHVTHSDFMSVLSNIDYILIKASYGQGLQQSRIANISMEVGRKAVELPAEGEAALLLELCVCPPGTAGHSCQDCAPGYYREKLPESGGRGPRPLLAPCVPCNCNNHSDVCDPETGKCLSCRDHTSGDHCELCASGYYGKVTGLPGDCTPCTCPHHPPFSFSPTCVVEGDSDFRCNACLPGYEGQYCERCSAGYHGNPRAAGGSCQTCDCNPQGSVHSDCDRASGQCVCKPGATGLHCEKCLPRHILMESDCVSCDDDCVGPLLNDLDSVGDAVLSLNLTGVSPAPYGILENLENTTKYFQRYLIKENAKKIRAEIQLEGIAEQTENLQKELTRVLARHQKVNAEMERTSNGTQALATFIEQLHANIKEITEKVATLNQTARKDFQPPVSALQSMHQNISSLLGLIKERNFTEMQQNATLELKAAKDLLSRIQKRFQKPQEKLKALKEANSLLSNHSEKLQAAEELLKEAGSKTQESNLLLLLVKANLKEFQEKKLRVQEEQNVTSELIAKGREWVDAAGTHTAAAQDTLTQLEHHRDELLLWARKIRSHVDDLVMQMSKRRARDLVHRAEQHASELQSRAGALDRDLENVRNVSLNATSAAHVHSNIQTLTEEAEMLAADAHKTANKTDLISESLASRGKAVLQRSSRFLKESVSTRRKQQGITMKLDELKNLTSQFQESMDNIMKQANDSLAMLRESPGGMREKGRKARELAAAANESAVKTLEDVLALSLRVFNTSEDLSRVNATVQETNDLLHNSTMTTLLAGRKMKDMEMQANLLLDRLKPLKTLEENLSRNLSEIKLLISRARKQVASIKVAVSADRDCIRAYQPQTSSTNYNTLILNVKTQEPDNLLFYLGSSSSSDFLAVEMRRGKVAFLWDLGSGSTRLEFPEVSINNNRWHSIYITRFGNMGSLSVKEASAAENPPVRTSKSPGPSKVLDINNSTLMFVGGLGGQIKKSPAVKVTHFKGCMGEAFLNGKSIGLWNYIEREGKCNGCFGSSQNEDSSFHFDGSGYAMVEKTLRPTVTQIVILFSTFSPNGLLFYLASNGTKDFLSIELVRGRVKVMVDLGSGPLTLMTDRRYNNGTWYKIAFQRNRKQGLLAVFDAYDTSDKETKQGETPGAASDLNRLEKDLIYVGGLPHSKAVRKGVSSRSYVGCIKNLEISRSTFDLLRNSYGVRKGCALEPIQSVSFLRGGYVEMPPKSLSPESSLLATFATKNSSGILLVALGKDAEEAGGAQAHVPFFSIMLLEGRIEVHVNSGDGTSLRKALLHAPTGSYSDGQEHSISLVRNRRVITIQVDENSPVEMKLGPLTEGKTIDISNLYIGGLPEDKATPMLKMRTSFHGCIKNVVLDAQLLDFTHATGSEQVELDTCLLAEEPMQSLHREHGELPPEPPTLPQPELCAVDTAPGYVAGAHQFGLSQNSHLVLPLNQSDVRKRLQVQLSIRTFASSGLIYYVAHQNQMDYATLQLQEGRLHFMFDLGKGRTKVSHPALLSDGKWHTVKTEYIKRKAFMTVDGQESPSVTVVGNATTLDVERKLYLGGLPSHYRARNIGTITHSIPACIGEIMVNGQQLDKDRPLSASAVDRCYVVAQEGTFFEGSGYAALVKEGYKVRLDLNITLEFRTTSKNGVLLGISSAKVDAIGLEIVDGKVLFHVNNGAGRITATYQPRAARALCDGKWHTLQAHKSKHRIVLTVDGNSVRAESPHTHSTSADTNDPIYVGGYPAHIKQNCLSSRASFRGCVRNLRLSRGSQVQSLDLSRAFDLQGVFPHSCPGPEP
UniProt P02469: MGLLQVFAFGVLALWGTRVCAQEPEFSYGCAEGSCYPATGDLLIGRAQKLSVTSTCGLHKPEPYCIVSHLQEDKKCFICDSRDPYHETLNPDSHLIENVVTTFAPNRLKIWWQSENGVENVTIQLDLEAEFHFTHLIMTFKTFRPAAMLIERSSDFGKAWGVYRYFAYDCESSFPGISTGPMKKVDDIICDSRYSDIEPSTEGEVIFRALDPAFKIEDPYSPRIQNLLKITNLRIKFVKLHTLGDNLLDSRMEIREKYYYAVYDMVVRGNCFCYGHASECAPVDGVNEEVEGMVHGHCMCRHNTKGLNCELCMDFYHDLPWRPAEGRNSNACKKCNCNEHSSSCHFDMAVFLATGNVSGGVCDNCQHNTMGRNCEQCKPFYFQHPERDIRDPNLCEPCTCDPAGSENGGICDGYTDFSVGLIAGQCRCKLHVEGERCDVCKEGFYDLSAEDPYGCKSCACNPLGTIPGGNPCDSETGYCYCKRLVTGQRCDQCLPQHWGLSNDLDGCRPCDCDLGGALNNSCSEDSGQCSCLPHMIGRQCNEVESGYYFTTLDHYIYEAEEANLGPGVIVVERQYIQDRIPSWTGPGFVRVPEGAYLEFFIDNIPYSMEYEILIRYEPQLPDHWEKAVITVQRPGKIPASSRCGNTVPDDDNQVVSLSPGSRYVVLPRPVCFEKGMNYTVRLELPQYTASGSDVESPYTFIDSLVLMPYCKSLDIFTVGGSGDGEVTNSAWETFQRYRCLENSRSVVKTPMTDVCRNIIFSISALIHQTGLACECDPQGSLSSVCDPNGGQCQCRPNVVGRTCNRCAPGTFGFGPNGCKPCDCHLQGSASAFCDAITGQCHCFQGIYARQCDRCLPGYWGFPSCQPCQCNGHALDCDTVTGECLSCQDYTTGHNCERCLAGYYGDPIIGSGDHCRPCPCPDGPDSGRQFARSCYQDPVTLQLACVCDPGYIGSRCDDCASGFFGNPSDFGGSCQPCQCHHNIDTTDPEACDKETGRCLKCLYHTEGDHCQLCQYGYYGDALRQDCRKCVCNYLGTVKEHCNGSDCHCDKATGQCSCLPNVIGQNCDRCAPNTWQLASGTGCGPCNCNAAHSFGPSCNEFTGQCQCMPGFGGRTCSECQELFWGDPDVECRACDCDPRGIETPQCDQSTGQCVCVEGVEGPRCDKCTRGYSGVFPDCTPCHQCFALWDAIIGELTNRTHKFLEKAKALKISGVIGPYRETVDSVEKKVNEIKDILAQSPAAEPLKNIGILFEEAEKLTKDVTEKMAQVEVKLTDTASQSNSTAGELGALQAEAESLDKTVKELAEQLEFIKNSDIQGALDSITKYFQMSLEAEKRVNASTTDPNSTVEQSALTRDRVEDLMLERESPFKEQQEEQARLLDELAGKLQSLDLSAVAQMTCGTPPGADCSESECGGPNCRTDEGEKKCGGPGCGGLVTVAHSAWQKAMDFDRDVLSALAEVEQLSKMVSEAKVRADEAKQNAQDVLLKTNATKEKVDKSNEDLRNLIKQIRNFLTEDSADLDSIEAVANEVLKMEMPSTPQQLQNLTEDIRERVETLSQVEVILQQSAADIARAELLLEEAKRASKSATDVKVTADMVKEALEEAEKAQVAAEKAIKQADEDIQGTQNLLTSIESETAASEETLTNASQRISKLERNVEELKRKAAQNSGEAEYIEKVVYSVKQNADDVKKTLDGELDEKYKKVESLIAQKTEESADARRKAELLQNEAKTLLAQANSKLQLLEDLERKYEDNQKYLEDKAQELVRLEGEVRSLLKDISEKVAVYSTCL
UniProt P02468: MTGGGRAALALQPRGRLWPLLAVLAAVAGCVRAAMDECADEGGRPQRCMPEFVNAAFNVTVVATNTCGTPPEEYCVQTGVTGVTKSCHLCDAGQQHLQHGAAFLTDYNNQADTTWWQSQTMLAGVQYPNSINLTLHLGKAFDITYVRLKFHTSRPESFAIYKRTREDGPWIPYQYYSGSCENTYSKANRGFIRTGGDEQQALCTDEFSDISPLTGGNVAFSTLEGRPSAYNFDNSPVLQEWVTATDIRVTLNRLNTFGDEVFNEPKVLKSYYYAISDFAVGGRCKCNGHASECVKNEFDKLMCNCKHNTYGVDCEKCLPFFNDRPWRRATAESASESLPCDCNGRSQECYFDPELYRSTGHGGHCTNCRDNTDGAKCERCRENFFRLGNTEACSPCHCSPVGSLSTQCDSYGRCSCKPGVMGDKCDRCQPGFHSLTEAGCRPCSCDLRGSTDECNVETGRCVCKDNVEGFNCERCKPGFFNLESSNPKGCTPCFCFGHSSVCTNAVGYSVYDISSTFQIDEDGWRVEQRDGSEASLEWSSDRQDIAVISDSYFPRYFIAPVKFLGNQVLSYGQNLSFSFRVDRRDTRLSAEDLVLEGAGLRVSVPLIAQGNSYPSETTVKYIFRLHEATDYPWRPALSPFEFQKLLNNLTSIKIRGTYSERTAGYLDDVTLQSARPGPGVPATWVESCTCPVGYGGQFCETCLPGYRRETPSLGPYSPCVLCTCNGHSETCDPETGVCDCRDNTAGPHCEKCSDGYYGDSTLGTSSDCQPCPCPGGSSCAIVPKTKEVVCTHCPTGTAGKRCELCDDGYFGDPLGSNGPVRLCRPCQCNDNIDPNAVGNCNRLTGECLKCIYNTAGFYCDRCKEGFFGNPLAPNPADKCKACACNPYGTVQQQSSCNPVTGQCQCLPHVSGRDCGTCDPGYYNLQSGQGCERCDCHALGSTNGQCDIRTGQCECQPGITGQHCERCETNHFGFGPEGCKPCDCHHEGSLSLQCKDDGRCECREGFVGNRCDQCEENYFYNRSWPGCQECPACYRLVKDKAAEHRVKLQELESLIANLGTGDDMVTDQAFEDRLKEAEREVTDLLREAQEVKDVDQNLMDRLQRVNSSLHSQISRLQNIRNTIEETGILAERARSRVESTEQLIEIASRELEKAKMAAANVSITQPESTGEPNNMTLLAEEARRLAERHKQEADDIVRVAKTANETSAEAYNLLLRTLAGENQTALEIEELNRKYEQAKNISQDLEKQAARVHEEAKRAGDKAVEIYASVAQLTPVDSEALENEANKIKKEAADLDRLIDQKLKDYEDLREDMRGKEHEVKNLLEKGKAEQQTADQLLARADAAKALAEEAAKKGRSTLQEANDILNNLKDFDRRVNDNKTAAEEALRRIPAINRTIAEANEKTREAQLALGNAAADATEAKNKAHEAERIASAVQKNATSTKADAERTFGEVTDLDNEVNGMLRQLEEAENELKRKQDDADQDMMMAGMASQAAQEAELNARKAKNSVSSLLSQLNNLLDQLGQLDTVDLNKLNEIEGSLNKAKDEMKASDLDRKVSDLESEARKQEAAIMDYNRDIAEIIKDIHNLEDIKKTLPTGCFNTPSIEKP

Molecular target: mouse Engelbreth-Holm-Swarm (EHS) laminin (mouse) (UniProt P19137+P02469+P02468)
Experiment: laminin overlay assay on PVDF membrane

binding: binds
B1: purified recombinant rabbit alpha-dystroglycan glycosylated by LARGE (from HEK293-aDG/L cells) (receptor, UniProt Q28685 30-653, looked up)
chain: HWPSEPSEAVRDWENQLEASMHSVLSDLHEALPTVVGIPDGTAVVGRSFRVTIPTDLIGSSGEVIKVSTAGKEVLPSWLHWDPQSHTLEGLPLDTDKGVHYISVSAAQLDANGSHIPQTSSVFSIEVYPEDHSEPQSVRAASPDLGEAAASACAAEEPVTVLTVILDADLTKMTPKQRIDLLHRMQSFSEVELHNMKLVPVVNNRLFDMSAFMAGPGNAKKVVENGALLSWKLGCSLNQNSVPDIRGVEAPAREGTMSAQLGYPVVGWHIANKKPPLPKRIRRQIHATPTPVTAIGPPTTAIQEPPSRIVPTPTSPAIAPPTETMAPPVRDPVPGKPTVTTRTRGAIIQTPTLGPIQPTRVSDAGTVVSGQIRATVTIPGYVEPTAVATPPTTTTKKPRVSTPKPATPSTDSSATTTRRPTKKPRTPRPVPRVTTKAPITRLETASPPTRIRTTTSGVPRGGEPNQRPELKNHIDRVDAWVGTYFEVKIPSDTFYDKEDTTTDKLKLTLKLREQQLVGEKSWVQFNSNSQLMYGLPDSSHVGKHEYFMHATDKGGLSAVDAFEIHVHKRPQGDKAPARFKAKFVGDPAPVVNDIHKKIALVKKLAFAFGDRNCSTVTLQNITRG
modifications: glycosylated by LARGE (co-expressed human LARGE); sites not given
